Assay results reported in PubChem BioAssay AID1487 (National Center for Advancing Translational Sciences (NCATS), 2009).
Several values for one entry are separate records, joined by “and”; a condition that tells them apart may be missing. Identical values can stand only once. Some of the results follow. Shown are side measurements of this screen, not its main read-out; they come without a call. Compounds called inactive in the main read-out are mostly missing here. Words in brackets tell the shape of the fitted curve; partial curves, single points and poor fits give uncertain potencies.

Test: qHTS Assay for Modulators of Lamin A Splicing
Details: HeLa LMNA splicing GFP/RFP minigene ratio, 48 h
Method in brief: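 Read-out is the ratio of GFP to DsRed2 object intensity, acquired by 488 nm laser-scanning cytometry on HeLa lamin A-EGFP minigene reporter cells. Compound incubation 48 hrs at 37 °C in Opti-MEM with 2% FBS; DMSO 0.5% final.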

[1] = measured here: GFP splicing reporter channel
[2] = measured here: RFP viability control channel

Structure (SMILES) | AC50 [1] | AC50 [2]
Cc1cccc(OCc2nnc(SCC(=O)c3ccccc3)o2)c1 | 22.4 µM [rising, single point] | 
COc1ccc(Nc2ccc(S(=O)(=O)N3CCCCCC3)cc2[N+](=O)[O-])cc1 | 7.94 µM [rising, partial curve] | 11.2 µM [rising, partial curve]
Cc1ccc(C)c(S(=O)(=O)N2CCN(CC(=O)Nc3ccc([N+](=O)[O-])cc3)CC2)c1 | 11.2 µM [rising, partial curve, poor fit] | 22.4 µM [rising, partial curve]
O=C1/C(=C/c2ccncc2)SC(=S)N1C1CCS(=O)(=O)C1 (configuration not stated) | 31.6 µM [falling, single point] | 25.1 µM [falling, single point]
CCOC(=O)c1cccc(NS(=O)(=O)c2ccc(-c3cnc(C4CC4)o3)cc2)c1 | 7.94 µM [rising, partial curve] | 1.78 µM [rising, full curve]
COc1ccc(S(=O)(=O)N2N=C(C)Oc3ccccc3C2=O)cc1 | 7.08 µM [falling, full curve] | 7.08 µM [falling, full curve]
Cc1cccn2c(=O)c(C=O)c(Sc3ncccn3)nc12 |  | 15.8 µM [rising, single point]
O=c1oc2cc(Br)ccc2n1CSC1=NCCS1 | 31.6 µM [rising, single point] | 15.8 µM [rising, single point]
Cc1nnc(NC(=O)CSc2nnc(C)n2-c2ccc(F)cc2)s1 |  | 12.6 µM [rising, partial curve]
S=C(NCCc1ccccn1)Nc1ccc(Cl)c(Cl)c1 |  | 14.1 µM [rising, single point]
CC(C)(C)NC(=O)c1ccc2c(c1)CCO2 | 0.158 µM [rising, full curve, poor fit] | 
CCOc1ccc(NC(=O)c2ncoc2-c2ccco2)cc1 | 35.5 µM [falling, partial curve, poor fit] | 35.5 µM [falling, partial curve, poor fit]
COc1ccc(C2(C(=O)NCc3ccccc3Cl)CCOCC2)cc1OC | 0.00501 µM [rising, full curve, poor fit] | 
CN(C)c1ccc(NC2=C(Cl)C(=O)c3ccccc3C2=O)cc1 | 35.5 µM [falling, single point] | 35.5 µM [falling, single point]
Cc1cc[n+](C2=C([O-])c3ccccc3C(=O)/C2=N\S(=O)(=O)c2cccs2)cc1C | 35.5 µM [falling, single point] | 
CCn1ncc(/C=C2/SC(=S)NC2=O)c1C | 7.08 µM [rising, partial curve, poor fit] | 
O=C(Cn1cc(C(=O)c2ccco2)c2ccccc21)NC1CCCC1 |  | 15.8 µM [rising, partial curve, poor fit]
COc1cccc(CNC(=O)c2ccc(-n3c(C)cc4c3CCC(C)C4)cc2)c1 (configuration not stated) |  | 11.2 µM [rising, single point]
C=CCn1c(=O)c(C(=O)OCC)c(O)c2ccccc21 |  | 0.447 µM [falling, full curve, poor fit]
N#Cc1cccc(-c2ccc3ncnc(NCc4ccccc4)c3c2)c1 | 12.6 µM [falling, partial curve] | 15.8 µM [falling, partial curve]
CCN(CC(=O)NC(C)(C)C)Cc1nc2c(Br)cc(Br)cc2c(=O)[nH]1 | 0.0398 µM [rising, full curve, poor fit] | 
C=CCN(Cc1cn(C)nc1-c1cccc(Cl)c1)C1CCS(=O)(=O)C1 (configuration not stated) |  | 0.0447 µM [falling, full curve, poor fit]
CCOc1cc(/C=C2\C(=O)N(Cc3ccco3)C(C)=C2C(=O)OC)ccc1O | 35.5 µM [falling, single point] | 35.5 µM [falling, single point]
N#C/C(=C1\CCCN1)c1nc2ccccc2c(=O)[nH]1 |  | 14.1 µM [rising, single point]
COc1ccc(Cc2c(O)nc(SCC(=O)NC34CC5CC(CC(C5)C3)C4)[nH]c2=O)cc1 | 35.5 µM [rising, single point] | 14.1 µM [rising, partial curve, poor fit]
COC(=O)c1ccc(C(=O)OC)c(NC(=S)N2CCN(c3ccc(F)cc3)CC2)c1 | 17.8 µM [rising, single point] | 0.891 µM [falling, single point]
CCn1c(=O)c(C(=O)NCc2ccc(OC)c(OC)c2)c(O)c2ccccc21 |  | 17.8 µM [rising, single point]

Structure (SMILES) | AC50 [1] | AC50 [2]
CSCCOC(=O)c1[nH]c2c(c1C)C(=O)CC(c1ccco1)C2 (configuration not stated) |  | 2.51 µM [rising, full curve]
COc1cccc(-c2nn(C)c3sc(C(=O)N4CCN(c5ccccn5)CC4)cc23)c1 | 22.4 µM [falling, single point] | 
COc1ccccc1NS(=O)(=O)c1ccc(NN=C2CCCC2)c([N+](=O)[O-])c1 |  | 1.58 µM [rising, partial curve]
NC(=O)c1ccc(NC(=O)COC(=O)C2(c3ccccc3F)CCCC2)cc1 | 10 µM [falling, partial curve] | 
CCCCOc1cc(C(=O)NCCN(CC)CC)c2ccccc2n1 | 8.91 nM [falling, full curve, poor fit] and 708 nM [rising, single point] | 0.00708 µM [falling, full curve, poor fit]
CC(=O)c1ccc(NC(=O)COC(=O)c2ccccc2N=Nc2ccc(N(C)C)cc2)cc1 |  | 12.6 µM [rising, partial curve]
Cc1ccc(NC(=O)/C=C/c2ccc(Cl)cc2)nc1 | 3.16 µM [falling, partial curve] | 2.24 µM [falling, partial curve, poor fit]
Cc1ccccc1NC(=S)N1CCC(NC(=O)c2ccco2)CC1 | 0.447 µM [rising, single point] | 
O=[N+]([O-])c1ccc(Oc2c(F)c(F)nc(N3CCCC3)c2F)cc1 | 20 µM [rising, single point] | 35.5 µM [rising, single point]
CC1CC(C)CN(c2ccc(C(=O)NCc3ccc4c(c3)OCO4)cc2[N+](=O)[O-])C1 (configuration not stated) | 14.1 µM [rising, single point] | 15.8 µM [rising, single point]
O=c1c2ccccc2c(C=NCc2ccccn2)c(O)n1-c1ccccc1 | 10 µM [rising, partial curve] | 12.6 µM [rising, partial curve]
O=C(c1cc2sccc2n1Cc1ccc(F)cc1)N1CCN(c2nc3ccccc3s2)CC1 |  | 2.82 µM [rising, full curve]
CC(C)(C)OC(=O)N/N=C/c1ccc(N2CCOCC2)s1 | 1.58 µM [falling, partial curve] | 2.51 µM [falling, partial curve]
COc1cc(CC(=O)Nc2ccc3c(c2)CCC3)cc(OC)c1OC | 0.562 µM [rising, full curve, poor fit] | 17.8 µM [rising, partial curve]
Cc1ccc(C)c(SCC(=O)Nc2nnc(-c3ccccc3)o2)c1 |  | 35.5 µM [rising, single point]
COc1cccc(CC2CC(=O)N(c3ccc4c(C)cc(=O)oc4c3)C2=O)c1 (configuration not stated) | 22.4 µM [rising, partial curve, poor fit] | 12.6 µM [rising, partial curve, poor fit]
O=C(NCCCl)NNc1c(Cl)cc(Cl)cc1Cl | 1.26 µM [rising, single point] | 1.26 µM [rising, single point]
O=S(=O)(c1ccc(NC(=S)NCc2cccnc2)cc1)N1CCCCC1 | 3.16 µM [rising, full curve, poor fit] | 
O=C(O)CC1S/C(=N\N=C2CCCCCCC2)N(c2ccccc2)C1=O (configuration not stated) |  | 0.01 µM [rising, full curve, poor fit]
O=C(NCC(c1ccc(Cl)cc1)N1CCOCC1)c1ccccc1F (configuration not stated) |  | 0.0224 µM [falling, full curve, poor fit]
Clc1ccc(-c2cn3cc(Br)ccc3n2)cc1Cl |  | 0.0891 µM [rising, full curve, poor fit]
CCS(=O)(=O)CCn1c([N+](=O)[O-])cnc1C |  | 2 µM [falling, single point]
Cc1noc(C)c1-c1nc(NC2CCNCC2)c2ccccc2n1 | 12.6 µM [falling, partial curve] | 12.6 µM [falling, single point]
CCOC(=O)/C=C/C(=O)Nc1ccccc1-c1ccccc1NC(=O)/C=C/C(=O)OCC |  | 0.0251 µM [rising, full curve, poor fit]
COC(=O)Nc1ccc(S(=O)(=O)N2CCC(C(=O)N3CCCCC3C)CC2)cc1 (configuration not stated) | 0.251 µM [falling, full curve, poor fit] | 
COc1cc(/C=C2/C(=O)NN(c3cccc(C)c3)C2=O)ccc1OC(=O)c1ccco1 |  | 35.5 µM [rising, single point]
O=C(c1ccc2ccccc2c1)N1CCN(c2ccc([N+](=O)[O-])c(N3CCOCC3)c2)CC1 | 15.8 µM [rising, single point] | 22.4 µM [rising, single point]
